Test results as given in patent US4223016A (Beecham Group Limited, priority 1977, dated 1980).
Where no end group is shown, it is not given here.

Test: general procedure: hybrid (solid and solution phase) peptide synthesis; 0.47 mM/g glycine substituted Merrifield Resin; DCCI

Substance	step yield (coupling step)	step yield (late stage modification step)	other results
BOC.Ser(Bzl)GlyPhePheValPheOMe	93%		
Ser(Bzl)GlyPhePheValPheOBz.HCl		94%	
Z.Arg(Z)2 Lys(Z)Thr(Bzl)Lys(Z)GlySer(Bzl)GlyPhePheOMe	78%		
ZLys(Z)Thr(Bzl)Lys(Z)GlyOH		49%	
Arg(NO2)Lys(Z)Thr(Bzl)Lys(Z)GlyOMe.HCl		92%	
ZLys(Z)Thr(Bzl)Lys(Z)GlySer(Bzl)GlyPhePheValPheOBz	85%		
BOC.Ser(Bzl)GlyPhePheOMe	67%		
PRKTKGSGFF-OMe		34%	
KTKGSGFF-OMe		46%	
BOC.Lys(Z)Thr(Bzl)Lys(Z)GlySer(Bzl)GlyPhePheOBz	85%		
KTKGSGFFVF-OH		23%	
BOC.Lys(Z)Thr(Bzl)Lys(Z)GlySer(Bzl)GlyPhePheValPheOMe	61%		
ZLys(Z)Thr(Bzl)Lys(Z)GlyOMe	50%		
BOC.Arg(NO2)Lys(Z)Thr(Bzl)Lys(Z)GlyOMe	71%		
Lys(Z)Thr(Bzl)Lys(Z)GlySer(Bzl)GlyPhePheOMe.HCl		52%	
BOC.Lys(Z)Thr(Bzl)Lys(Z)GlySer(Bzl)GlyPhePheOMe	50%		
ZProArg(NO2)Lys(Z)Thr(Bzl)Lys(Z)GlyOMe	54%		
BOC.Lys(Z)Thr(Bzl)Lys(Z)GlyOMe			step yield (coupling step, run 1): 84%; step yield (coupling step, run 2): 74%
BOC.Ser(Bzl)PhePheOBz	72%		
ZProArg(NO2)Lys(Z)Thr(Bzl)Lys(Z)GlySer(Bzl)GlyPhePheOMe	88%		
ZProArg(NO2)Lys(Z)Thr(Bzl)Lys(Z)GlyOH		50%	
Ser(Bzl)GlyPhePheOMe.HCl (II)		96%	
BOC.PhePheValPheOMe	80%		
BOC.Ser(Bzl)GlyPhePheValPheOBz	91%		
BOC.Lys(Z)Thr(Bzl)Lys(Z)GlyOSu		15%	
RKTKGSGFF-OMe		26%	
